# In paper doi:10.1101/2021.01.29.428839:
# Sequences of proteins named here, by UniProt entry; tags and fusion partners are left off. Residues count along the entry.
# UniProt C0LGR3, residues 25-1091: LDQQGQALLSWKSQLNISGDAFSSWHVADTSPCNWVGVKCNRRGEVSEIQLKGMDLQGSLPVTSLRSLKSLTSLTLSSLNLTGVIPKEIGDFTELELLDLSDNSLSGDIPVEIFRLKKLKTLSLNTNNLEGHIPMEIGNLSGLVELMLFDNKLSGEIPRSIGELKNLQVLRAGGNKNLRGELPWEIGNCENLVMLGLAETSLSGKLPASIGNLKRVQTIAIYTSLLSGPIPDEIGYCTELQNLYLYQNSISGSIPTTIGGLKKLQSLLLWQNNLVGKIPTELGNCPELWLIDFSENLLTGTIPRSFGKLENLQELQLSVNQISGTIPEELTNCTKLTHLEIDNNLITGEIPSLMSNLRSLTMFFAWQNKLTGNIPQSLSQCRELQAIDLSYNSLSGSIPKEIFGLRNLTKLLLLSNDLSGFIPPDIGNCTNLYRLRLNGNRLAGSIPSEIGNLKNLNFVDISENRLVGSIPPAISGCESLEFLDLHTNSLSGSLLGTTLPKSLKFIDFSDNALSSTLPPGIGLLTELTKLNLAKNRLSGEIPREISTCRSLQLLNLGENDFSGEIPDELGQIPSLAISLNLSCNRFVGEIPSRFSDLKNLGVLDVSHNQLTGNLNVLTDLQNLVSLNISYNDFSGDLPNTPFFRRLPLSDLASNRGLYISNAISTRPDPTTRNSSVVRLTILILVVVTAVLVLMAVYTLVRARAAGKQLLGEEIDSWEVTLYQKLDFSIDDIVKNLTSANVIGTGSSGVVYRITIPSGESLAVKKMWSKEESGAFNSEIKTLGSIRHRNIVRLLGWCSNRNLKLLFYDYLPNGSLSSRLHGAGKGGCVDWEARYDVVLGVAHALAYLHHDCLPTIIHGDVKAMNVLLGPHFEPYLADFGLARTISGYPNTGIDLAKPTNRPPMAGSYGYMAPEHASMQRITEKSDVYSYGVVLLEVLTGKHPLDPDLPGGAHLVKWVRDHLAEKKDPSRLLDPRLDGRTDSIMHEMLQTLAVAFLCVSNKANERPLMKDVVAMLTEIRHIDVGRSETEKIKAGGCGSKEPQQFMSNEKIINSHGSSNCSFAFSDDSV
# UniProt Q9FL28, residues 24-1173: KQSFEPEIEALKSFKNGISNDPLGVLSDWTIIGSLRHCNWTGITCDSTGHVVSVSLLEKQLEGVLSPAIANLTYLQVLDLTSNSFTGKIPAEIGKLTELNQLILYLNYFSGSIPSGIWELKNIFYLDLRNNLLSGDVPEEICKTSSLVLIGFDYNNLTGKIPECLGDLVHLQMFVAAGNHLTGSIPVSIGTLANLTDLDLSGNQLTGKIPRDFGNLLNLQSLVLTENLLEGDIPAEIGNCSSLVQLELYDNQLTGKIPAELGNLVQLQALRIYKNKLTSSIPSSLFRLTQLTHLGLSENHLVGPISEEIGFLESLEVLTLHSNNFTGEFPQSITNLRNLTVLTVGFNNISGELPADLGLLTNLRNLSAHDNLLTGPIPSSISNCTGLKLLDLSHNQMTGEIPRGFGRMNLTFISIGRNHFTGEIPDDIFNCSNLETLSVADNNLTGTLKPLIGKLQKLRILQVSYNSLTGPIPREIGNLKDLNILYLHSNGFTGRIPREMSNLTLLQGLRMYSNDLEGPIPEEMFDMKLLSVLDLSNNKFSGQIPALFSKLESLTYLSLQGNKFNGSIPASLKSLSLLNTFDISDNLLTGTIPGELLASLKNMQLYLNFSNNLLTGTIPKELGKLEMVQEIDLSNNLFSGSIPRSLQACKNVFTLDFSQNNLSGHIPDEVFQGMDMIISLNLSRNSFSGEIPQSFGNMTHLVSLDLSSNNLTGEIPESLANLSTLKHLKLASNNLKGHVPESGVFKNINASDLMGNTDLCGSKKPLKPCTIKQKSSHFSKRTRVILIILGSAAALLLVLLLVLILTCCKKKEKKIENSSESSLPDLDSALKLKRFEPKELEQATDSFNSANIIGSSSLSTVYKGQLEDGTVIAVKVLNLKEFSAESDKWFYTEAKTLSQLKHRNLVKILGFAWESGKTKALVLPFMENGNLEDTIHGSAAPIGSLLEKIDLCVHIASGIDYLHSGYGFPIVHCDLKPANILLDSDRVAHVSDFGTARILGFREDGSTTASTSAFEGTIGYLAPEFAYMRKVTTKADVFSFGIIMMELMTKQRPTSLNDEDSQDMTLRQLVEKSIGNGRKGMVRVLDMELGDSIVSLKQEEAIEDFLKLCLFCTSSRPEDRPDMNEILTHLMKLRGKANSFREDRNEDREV
# Results are given in words; binding and its absence hold for the method and conditions named. Binding seen in cells or lysates may run through a third protein. Some results given as binding are weak or reduced against the parent protein; the word gives no strength. For some assays here: Where a sequence is shown, tags or fusion partners need not be part of it.
# What was measured:
# [1] = target: T1, CLV1-GFP (Arabidopsis thaliana (Col-0 cDNA)) (UniProt Q9SYQ8); test: co-IP
# T1 sequence: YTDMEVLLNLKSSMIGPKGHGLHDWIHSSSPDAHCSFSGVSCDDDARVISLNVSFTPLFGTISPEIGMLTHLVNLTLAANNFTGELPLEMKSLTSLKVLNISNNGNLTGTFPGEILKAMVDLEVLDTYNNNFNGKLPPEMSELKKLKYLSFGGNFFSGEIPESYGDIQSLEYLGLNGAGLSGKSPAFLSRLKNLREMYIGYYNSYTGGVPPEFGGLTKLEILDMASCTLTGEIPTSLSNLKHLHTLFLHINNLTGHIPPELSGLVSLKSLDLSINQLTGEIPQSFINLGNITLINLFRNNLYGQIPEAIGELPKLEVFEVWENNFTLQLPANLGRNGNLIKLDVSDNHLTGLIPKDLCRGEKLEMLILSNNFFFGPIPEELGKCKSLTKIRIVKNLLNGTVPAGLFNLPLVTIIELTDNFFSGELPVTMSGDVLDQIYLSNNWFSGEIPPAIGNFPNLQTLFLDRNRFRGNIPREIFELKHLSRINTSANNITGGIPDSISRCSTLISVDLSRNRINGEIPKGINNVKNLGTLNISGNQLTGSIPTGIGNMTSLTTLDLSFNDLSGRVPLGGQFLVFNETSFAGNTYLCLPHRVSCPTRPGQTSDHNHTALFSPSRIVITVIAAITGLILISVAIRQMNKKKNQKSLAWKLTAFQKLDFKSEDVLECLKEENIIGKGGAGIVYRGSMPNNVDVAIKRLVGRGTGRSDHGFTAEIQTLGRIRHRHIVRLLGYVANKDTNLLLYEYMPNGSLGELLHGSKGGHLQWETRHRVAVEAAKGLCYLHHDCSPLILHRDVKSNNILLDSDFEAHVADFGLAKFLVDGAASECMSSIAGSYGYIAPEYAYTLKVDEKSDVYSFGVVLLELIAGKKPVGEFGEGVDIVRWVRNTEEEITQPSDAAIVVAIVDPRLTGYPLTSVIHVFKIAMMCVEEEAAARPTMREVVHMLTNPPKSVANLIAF
# [2] = target: RGI3-GFP (Arabidopsis thaliana (Col-0 cDNA)) (UniProt C0LGR3); test: co-IP
substance,measurement,setting,value
FLS2-HA (from UniProt Q9FL28 24-1173) (receptor),binding,[1],no binding
same,binding,[2],binds
